We go through 45 molecules from patent US20220160802A1, “METHODS AND COMPOSITIONS FOR PROMOTING HEALTH IN A SUBJECT” (COMMONWEALTH SCIENTIFIC AND INDUSTRIAL RESEARCH ORGANISATION, priority 2019, published 2022).

The data set is described as follows: Untargeted LC-MS metabolite analysis of fermented and non-fermented broccoli puree. The settings on record: fermented vs non-fermented broccoli puree.
In the case of 2-carboxy-L-threo-pentonate, the FC turned out to be 2.0447.

Regarding `C/C(=C\CNc1ncnc2c1ncn2[C@@H]1O[C@H](CO)[C@@H](O)[C@H]1O)CO` (relative stereo) [trans-zeatin riboside], the FC came to 0.4045.

In the case of `O=C(/C=C/c1ccc(O)c(O)c1)O[C@@H]1[C@H](O)C[C@@](O)(C(=O)O)C[C@H]1OC(=O)/C=C/c1ccc(O)c(O)c1` (stereo in doubt) [3,4-Dicaffeoylquinic acid], the FC was determined as 2.7368.

Regarding `CSCCCCCCCC=[N+]([O-])O` [1-aci-nitro-8-methylsulfanyloctane], the FC turned out to be 8.8356.

As for `Nc1nc(NC2O[C@H](COP(=O)(O)O)[C@@H](O)[C@H]2O)c(N)c(=O)[nH]1` (stereo partly drawn) [2,5-diamino-6-5-phospho-D-ribosylaminopyrimidin-43H-one], the FC amounted to 0.3594.

For `CCCC(C/C(=C/C(=O)O)C(=O)O)SC` (stereo not drawn) [2-2′-methylthiopentylmaleate], the FC came to 14.621.

In the case of `CSCCCCC(O)(CC(=O)O)C(=O)O` (stereo not drawn) [2-4′-methylthiobutylmalate], the FC was 0.4362.

Take `CSCCCCCCCC(O)(CC(=O)O)C(=O)O` (stereo not drawn) [2-7′-methylthioheptylmalate]: the FC was determined as 0.1968.

As for `O=C(O)c1ccccc1O` [2-Hydroxybenzoic acid], the FC was 2.1338.

On to `C=C(N)C(=O)O` [2-aminoprop-2-enoate], for which the FC was 2.0003.

`O=C(O)[C@@](O)(COP(=O)(O)O)[C@H](O)[C@H](O)CO` [2-carboxy-D-arabinitol 1-phosphate]: the FC was 41.06.

As for `CC1=CC(=O)CC(C)(C)C1(O)/C=C/C(C)=C\C(=O)O` (stereo not drawn) [2-cis-abscisate], the FC came to 76.81.

As for `CSCCC(=O)C(O)=COP(=O)(O)O` [2-hydroxy-5-methylthio-3-oxopent-1-enyl 1-phosphate], the FC was 13.56.

`C/C(=C\Cc1cc(O)cc(C)c1O)CCCC(C)CCCC(C)CCCC(C)C` (stereo not drawn) [2-methyl-6-phytyl-1,4-benzoquinol]: the FC is on record as 3.3442.

In the case of `O=C(O)CC(=O)OC[C@H]1OC(Oc2ccc3ccccc3c2)[C@H](O)[C@@H](O)[C@@H]1O` (stereo partly drawn) [2-naphthol 6′-O-malonylglucoside], the FC stood at 0.3064.

Take `Oc1ccc2ccccc2c1` [2-naphthol]: the FC was 3.6366.

`O=C(O)[C@@H](CO)OP(=O)(O)O` [2-phospho-D-glycerate]: the FC was found to be 5.0613.

`O=C1C[C@@H](c2ccc(O)cc2)Oc2cc(O)cc(O)c21` [2S-naringenin]: the FC is 0.3035.

Turning to `COc1cc(/C=C/C(=O)OC2CC(O)(C(=O)O)CC(O)C2OC(=O)/C=C/c2ccc(O)c(OC)c2)ccc1O` (stereo not drawn) [3,4-Diferuloylquinic acid], the FC turned out to be 5.2839.

Regarding `COc1cc(/C=C/C(=O)O[C@@H]2C[C@@](O)(C(=O)O)C[C@@H](O)[C@@H]2O)ccc1O` [3-Feruloylquinic acid], the FC is 3.3496.

For `COc1ccc(-c2oc3c(OC)c(OC)c(OC)c(OC)c3c(=O)c2OC)cc1OC` [3-Methoxynobiletin], the FC worked out at 8.9717.

Take `COc1ccc(-c2oc3cc(OC)c(OC)c(OC)c3c(=O)c2OC)cc1OC` [3-Methoxysinensetin]: the FC was found to be 2.4046.

On to `CC(C)[C@H](C)[C@@H](O)[C@H](O)[C@@H](C)[C@H]1CC[C@H]2[C@@H]3CC(=O)[C@H]4CC(=O)CC[C@]4(C)[C@H]3CC[C@]12C` [3-dehydroteasterone], for which the FC was determined as 8.985.

`O=C(O)[C@@]1(O)C[C@@H](O)[C@@H](O)[C@@H]([C@H](O)CO)O1` [3-deoxy-alpha-D-manno-octulosonate]: the FC is 6.6012.

Regarding `CSCCCCC(C(=O)C(=O)O)C(C)C` (stereo not drawn) [3-isopropyl-7-methylthio-2-oxoheptanoate], the FC came to 0.3029.

Consider `C=C1C(=O)O[C@@H]2[C@H]3O[C@]3(C)[C@@H](O)C/C=C(\C)CC[C@@H]12` [3beta-hydroxyparthenolide], for which the FC was 8.1691.

Consider `O=c1cc(O)c2ccccc2o1` [4-Hydroxycoumarin], for which the FC came to 0.4821.

In the case of `O=C(O)/C=C/C(=O)CC(=O)CC(=O)O` [4-fumaryl-acetoacetate], the FC amounted to 5.0298.

Consider `CC(C)CC(=O)C(=O)O` [4-methyl-2-oxopentanoate], for which the FC is 3.906.

For the molecule `CSCCCC/C(=N/OS(=O)(=O)O)S[C@@H]1O[C@H](CO)[C@@H](O)[C@H](O)[C@H]1O` [4-methylthiobutyl glucosinolate], the FC is 14.183.

On to `Cc1cc(=O)oc2cc(O[C@@H]3O[C@H](COC(=O)CC(=O)O)[C@@H](O)[C@H](O)[C@H]3O)ccc12` [4-methylumbelliferone 6′-O-malonylglucoside], for which the FC was 30.436.

For `C=C(CC[C@@H](C)[C@H]1CC[C@@]2(C)[C@@H]3CC[C@H]4[C@](C)(C=O)[C@@H](O)CC[C@@]45C[C@@]35CC[C@]12C)C(C)C` [4alpha-formyl,4beta,14alpha-dimethyl-9beta,19-cyclo-5alpha-ergost-24241-en-3beta-ol], the FC is 18.8.

As to `C/C=C(/CC[C@@H](C)[C@H]1CC[C@H]2C3=CC[C@H]4[C@H](C=O)[C@@H](O)CC[C@]4(C)[C@H]3CC[C@]12C)C(C)C` [4alpha-formyl-stigmasta-7,24241-dien-3beta-ol], the FC worked out at 58.691.

`CC(C)(COP(=O)(O)O)[C@@H](O)C(=O)NCCC(=O)NCCS` [4′-phosphopantetheine]: the FC came to 11.775.

Take `O=C(O)c1cc2cc(O)c(O)cc2[nH]1` [5,6-dihydroxyindole-2-carboxylate]: the FC amounted to 5.2663.

In the case of `NC(=O)c1ncn(C2O[C@H](COP(=O)(O)O)[C@@H](O)[C@H]2O)c1NC=O` (stereo partly drawn) [5-formamido-1-5-phospho-D-ribosyl-imidazole-4-carboxamide], the FC is given as 30.585.

Regarding `Nc1nc(=O)n([C@@H]2O[C@H](COP(=O)(O)O)[C@@H](O)[C@H]2O)cc1O` [5-hydroxy-CMP], the FC was found to be 25.864.

Consider `CSCCCCCC(S)=NO` [5-methylthiopentyl-thiohydroximate], for which the FC amounted to 0.302.

As to `CSCCCCCC(=NOS(=O)(=O)O)S[C@@H]1O[C@H](CO)[C@@H](O)[C@H](O)[C@H]1O` [5-methylthiopentylglucosinolate], the FC was determined as 59.335.

As for `CC(O)[C@@H](O)[C@@H](O)C(=S)COP(=O)(O)O` (stereo partly drawn) [5-methylthioribulose 1-phosphate], the FC is 46.001.

With `O=P(O)(O)OC[C@H]1O[C@H](OP(=O)(O)OP(=O)(O)O)[C@H](O)[C@@H]1O` [5-phospho-alpha-D-ribose 1-diphosphate], the FC is 0.4783.

Take `N[C@@H]1O[C@H](COP(=O)(O)O)[C@@H](O)[C@H]1O` [5-phospho-beta-D-ribosylamine]: the FC was determined as 10.643.

As for `Nc1c(C(=O)N[C@@H](CC(=O)O)C(=O)O)ncn1[C@@H]1O[C@H](COP(=O)(O)O)[C@@H](O)[C@H]1O` [5′-phosphoribosyl-4-N-succinocarboxamide-5-aminoimidazole], the FC was 0.4281.

Turning to `C[C@@H]1O[C@@H](Oc2cc3oc(-c4ccc(O)c(O)c4)cc(=O)c3c(O)c2O)[C@H](O)[C@H](O)[C@H]1O` [6-Hydroxyluteolin 7-O-rhamnoside], the FC is listed as 2.142.

Regarding `COc1cc2c(cc1O)C(Cc1ccc(O)c(O)c1)NCC2` (stereo not drawn) [6-O-methylnorlaudanosoline], the FC came to 0.05573.
